# Laboratory results published in patent publication US9211310B2, “Use of a Chinese medicine composition in preparing medicaments for treating secondary prevention of myocardial infarction” (TASLY PHARMACEUTICAL GROUP CO., LTD, priority 2010, dated 2015).
# Further values from the same series stand in other lists.
# Test system: patients after acute myocardial infarction
# Assay: Angina pectoris score, total and single (frequency/attack times, duration, pain degree, dose of nitroglycerin), same clinical trial
# Format: in vivo, human
# Description: In order to better understand the present invention, a multi-center, randomized, double-blind, double-dummy and positive drug controlled trial had been conducted. 3508 patients who were in accordance with the diagnostic standards of AMI for 28 days to 2 years and differentiated as Qi deficiency and blood stagnation syndrome by TCM were studied. 0.5 g Chinese medicine composition prepared by the method of EXAMPLE 1 (Coded as QSYQ) was administrated half an hour after meal, 3 times per day. Aspirine was used as a positive drug. The patients were treated for 1 year and observed for 6 months.
# They included the overall survival time, angina pectoris score, TCM symptom score and life quality score, where angina pectoris score, TCM symptom score and life quality score were evaluated at randomization, in 1st, 3rd, 6th, 9th, 12th month after treatment and 18th month after follow-up.
# (§1) Total angina pectoris score was described on every observation period and the change of observation in comparison with baseline. T-test or Wilcoxon rank sum test were used for inter-group comparison. Grade of total score was evaluated on every observation and Wilcoxon rank sum test was used for inter-group comparison. T-test and Pairing signed rank sum test were used for analyzing the change of total score on every observation between groups in comparison with the baseline.
# (§2) Single angina pectoris score was depicted on every observation time-point and the change of observation in comparison with baseline. Wilcoxon rank sum test was used for inter-group comparison. Pairing signed rank sum test was used for analyzing the change of total score on every observation between groups in comparison with the baseline.
# as §1, with “comparison with the baseline. T-test” for “comparison with baseline. T-test”
# as §2, with “described” for “depicted”
smiles,measurement,setting,value
"CC(=O)Oc1ccccc1C(=O)O [Control group, aspirine]","change of attack times score, patients (%)","6 months after treatment-baseline, change 2, FAS",(2.47%)
same,"change of attack times score, patients (%)","6 months after treatment-baseline, change 2, PP",(1.85%)
same,"change of attack times score, patients (%)","6 months after treatment-baseline, change 3, FAS",(0.06%)
same,"change of attack times score, patients (%)","6 months after treatment-baseline, change 4, FAS",(0.11%)
same,"change of attack times score, patients (%)","6 months after treatment-baseline, change 4, PP",(0.14%)
same,"change of attack times score, patients (%)","9 months after treatment-baseline, change 0, FAS",(50.32%)
same,"change of attack times score, patients (%)","9 months after treatment-baseline, change 0, PP",(47.64%)
same,"change of attack times score, patients (%)","9 months after treatment-baseline, change 1, FAS",(2.98%)
same,"change of attack times score, patients (%)","9 months after treatment-baseline, change 1, PP",(2.43%)
same,"change of attack times score, patients (%)","9 months after treatment-baseline, change 2, FAS",(2.01%)
same,"change of attack times score, patients (%)","9 months after treatment-baseline, change 2, PP",(1.53%)
same,"change of attack times score, patients (%)","9 months after treatment-baseline, change 3, FAS",(0.06%)
same,"change of attack times score, patients (%)","9 months after treatment-baseline, change 4, FAS",(0.06%)
same,"change of attack times score, patients (%)","9 months after treatment-baseline, change 4, PP",(0.07%)
same,"change of attack times score, patients (%)","9 months after treatment-baseline, change 6, FAS",(0.06%)
same,"change of attack times score, patients (%)","9 months after treatment-baseline, change 6, PP",(0.07%)
same,"change of attack times score, patients (%)","9 months after treatment-baseline, change −1, FAS",(20.20%)
same,"change of attack times score, patients (%)","9 months after treatment-baseline, change −1, PP",(21.91%)
same,"change of attack times score, patients (%)","9 months after treatment-baseline, change −2, FAS",(20.60%)
same,"change of attack times score, patients (%)","9 months after treatment-baseline, change −2, PP",(22.26%)
same,"change of attack times score, patients (%)","9 months after treatment-baseline, change −3, FAS",(0.86%)
same,"change of attack times score, patients (%)","9 months after treatment-baseline, change −3, PP",(1.04%)
same,"change of attack times score, patients (%)","9 months after treatment-baseline, change −4, FAS",(2.47%)
same,"change of attack times score, patients (%)","9 months after treatment-baseline, change −4, PP",(2.70%)
same,"change of attack times score, patients (%)","9 months after treatment-baseline, change −5, FAS",(0.00%)
same,"change of attack times score, patients (%)","9 months after treatment-baseline, change −5, PP",(0.00%)
same,"change of attack times score, patients (%)","9 months after treatment-baseline, change −6, FAS",(0.40%)
same,"change of attack times score, patients (%)","9 months after treatment-baseline, change −6, PP",(0.35%)
